Results from article PMC3804392.
No constants are given. Whether binding was seen depends on the method and setting. For some of these results: In cells and extracts the contact can be indirect. Some results given as binding are weak or reduced against the parent protein; the word gives no strength.

The chains behind the UniProt entries cited, without tags or fusion partners. Where a name states a change or a piece, a line headed by the entry shows the natural chain unless it says otherwise. A line that says so, or that is headed by a name, gives the form on record, which may keep a tag or linker. Residues count along the entry.
UniProt Q02156: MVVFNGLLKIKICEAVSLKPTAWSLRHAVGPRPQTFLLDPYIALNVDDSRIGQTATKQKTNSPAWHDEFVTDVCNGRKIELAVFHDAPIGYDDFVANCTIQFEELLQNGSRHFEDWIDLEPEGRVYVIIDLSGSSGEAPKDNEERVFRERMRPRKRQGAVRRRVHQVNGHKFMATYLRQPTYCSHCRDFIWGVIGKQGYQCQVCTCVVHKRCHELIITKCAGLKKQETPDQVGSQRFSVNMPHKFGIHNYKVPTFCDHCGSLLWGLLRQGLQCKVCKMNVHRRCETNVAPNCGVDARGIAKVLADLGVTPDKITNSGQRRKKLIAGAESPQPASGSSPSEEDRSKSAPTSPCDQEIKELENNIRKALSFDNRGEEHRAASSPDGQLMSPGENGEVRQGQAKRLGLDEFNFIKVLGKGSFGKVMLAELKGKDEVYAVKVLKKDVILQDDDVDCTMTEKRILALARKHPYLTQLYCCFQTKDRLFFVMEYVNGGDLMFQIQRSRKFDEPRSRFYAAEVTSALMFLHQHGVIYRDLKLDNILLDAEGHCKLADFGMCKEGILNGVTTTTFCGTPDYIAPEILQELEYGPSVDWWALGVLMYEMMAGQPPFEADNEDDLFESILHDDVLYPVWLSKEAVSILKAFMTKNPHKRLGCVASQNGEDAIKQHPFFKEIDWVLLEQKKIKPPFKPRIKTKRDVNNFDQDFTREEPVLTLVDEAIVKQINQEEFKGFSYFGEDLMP
Recombinant His-tagged PKCε-kinase domain: residues 408-668 of Q02156
UniProt P61586: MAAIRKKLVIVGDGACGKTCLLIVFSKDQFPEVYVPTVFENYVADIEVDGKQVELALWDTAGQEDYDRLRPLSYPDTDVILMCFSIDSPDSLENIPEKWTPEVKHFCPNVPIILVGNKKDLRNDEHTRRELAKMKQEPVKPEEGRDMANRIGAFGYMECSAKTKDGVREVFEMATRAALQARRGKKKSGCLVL

Key:
[1] = target: Recombinant His-tagged PKCε-kinase domain (UniProt Q02156); test: co-IP; recombinant His-tagged PKCε-kinase domain and GST tagged-RhoA incubated in kinase buffer with phosphatidylserine and diacylglycerol, 30 minutes at 25°C; precipitated with agarose-conjugated anti-His, anti-RhoA or nonspecific IgG; blot with anti-His and anti-RhoA; both purified
[2] = target: Recombinant PKCε (protein kinase Cε) (UniProt Q02156); test: co-IP; recombinant PKCε and recombinant RhoA incubated in ATP-free kinase buffer with phosphatidylserine and diacylglycerol, 30 minutes at 25°C; precipitated with agarose-conjugated anti-PKCε antibody (or IgG) at 4°C overnight; blot with anti-RhoA; both purified
[3] = target: mCherry-PKCε (human) (UniProt Q02156); test: FRET or BRET; quantitative stoichiometric FRET in live HEK293 cells cotransfected with the mCherry (acceptor) and eGFP (donor) fusions; images before and every 15 seconds after PMA (100 nM) for 12.5 minutes
[4] = target: mCherry-PKCε/K437R (human) (UniProt Q02156); test: as above

Recombinant GST tagged-RhoA (from UniProt P61586 1-193)
binding [1]: binds

Recombinant RhoA (from UniProt P61586 1-193)
binding [2]: binds

eGFP-RhoA (from UniProt P61586 1-193)
binding [3]: binds | binding [4]: binds
